Measurements reported in PubChem BioAssay AID602196 (INSERM, 2012).

Assay: 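Knock-downs that protect lung cancer cells from cisplatin or sensitise them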
Cell system: human A549 lung cancer cells
Reagent: siRNA pair against human genes
Timing: 48 h transfection before cisplatin; time from cisplatin to read-out not stated
Challenge: cisplatin at a dose killing half of control-siRNA cells; exact dose and duration not given
Read-out: 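Cisplatin cell death as a shift from the 50% death seen with control siRNA; siRNAs toxic or growth-blocking alone scored 0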
Scale: two-siRNA summed score (-2 to +2): higher = both siRNAs protect from cisplatin killing; -2 means both sensitise
Call rule: 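siRNAs harmful alone (LDH or WST-1) get 0; others get +1 for less and -1 for more cisplatin killing; genes are active when the two siRNAs give the same sign, summing to ±2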
Meaning of the calls: active = both siRNAs shift cisplatin killing the same way; inactive = no consistent shift, or siRNA harmful alone
In all, the deposit lists about 23,000 reagents; this is a part drawn at random. Over the whole deposit, 455 (2%) are marked active. 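Active includes both protection and sensitisation; some change values fall well beyond the stated -50 to +50 range.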 Further read-outs or replicates are left out here. Not given: the amount of reagent.

gene symbol | two-siRNA summed score (-2 to +2) | call
EMX1 (empty spiracles homeobox 1) | 0 | inactive
CLEC17A (C-type lectin domain containing 17A) | 0 | inactive
SLC30A10 | 0 | inactive
ALOX12 (arachidonate 12-lipoxygenase, 12S type) | -1 | inactive
SLC25A19 | 0 | inactive
OR10C1 (olfactory receptor family 10 subfamily C member 1) | 0 | inactive
LOC440484 | 0 | inactive
ARMCX1 (armadillo repeat containing X-linked 1) | 0 | inactive
NIP7 (nucleolar pre-rRNA processing protein NIP7) | 0 | inactive
GOT1 (glutamic-oxaloacetic transaminase 1) | -1 | inactive
DOK5 (docking protein 5) | 0 | inactive
CTTNBP2 (cortactin binding protein 2) | 0 | inactive
LOC390638 (golgin A2 pseudogene) | 0 | inactive
KLHDC2 (kelch domain containing 2) | 0 | inactive
LY86-AS1 (LY86 antisense RNA 1) | 0 | inactive
S1PR2 (sphingosine-1-phosphate receptor 2) | 0 | inactive
HESX1 (HESX homeobox 1) | 0 | inactive
ABCA4 (ATP binding cassette subfamily A member 4) | -1 | inactive
ATG16L2 (autophagy related 16 like 2) | 0 | inactive
PARN (poly(A)-specific ribonuclease) | 0 | inactive
MFRP (membrane frizzled-related protein) | -1 | inactive
BID (BH3 interacting domain death agonist) | 1 | inactive
GOLGIN-67 | 0 | inactive
RPSA (ribosomal protein SA) | 0 | inactive
PLLP (plasmolipin) | 0 | inactive
QTGAL (queuosine-tRNA galactosyltransferase) | 0 | inactive
TENT4A (terminal nucleotidyltransferase 4A) | 0 | inactive
CCDC146 (coiled-coil domain containing 146) | 0 | inactive

Continued; the last 2 above are carried over.
gene symbol | two-siRNA summed score (-2 to +2) | call
TENT4A (terminal nucleotidyltransferase 4A) | 0 | inactive
CCDC146 (coiled-coil domain containing 146) | 0 | inactive
ARL4A (ARF like GTPase 4A) | -1 | inactive
ZNF708 (zinc finger protein 708) | 0 | inactive
FLJ43870 | 1 | inactive
MSANTD3 (Myb/SANT DNA binding domain containing 3) | 0 | inactive
HOPX (HOP homeobox) | 1 | inactive
MTR (5-methyltetrahydrofolate-homocysteine methyltransferase) | 0 | inactive
CABP2 (calcium binding protein 2) | 0 | inactive
MAGED1 (MAGE family member D1) | 0 | inactive
FLJ35848 | 0 | inactive
RSAD1 (radical S-adenosyl methionine domain containing 1) | 0 | inactive
ADRM1 (ADRM1 26S proteasome ubiquitin receptor) | 1 | inactive
RYK (receptor like tyrosine kinase) | 1 | inactive
UCHL5 (ubiquitin C-terminal hydrolase L5) | 0 | inactive
TAFA2 (TAFA chemokine like family member 2) | 0 | inactive
ANGPTL7 (angiopoietin like 7) | 0 | inactive
SERPINB8 (serpin family B member 8) | -1 | inactive
MAPK10 (mitogen-activated protein kinase 10) | 0 | inactive
PHLDA3 (pleckstrin homology like domain family A member 3) | 1 | inactive
NFE2L1 (NFE2 like bZIP transcription factor 1) | 0 | inactive
PATE1 (prostate and testis expressed 1) | 0 | inactive
RANBP10 (RAN binding protein 10) | 0 | inactive
PIK3CB | 0 | inactive
LOC339991 | 1 | inactive
DSCAM (DS cell adhesion molecule) | 0 | inactive
POP1 (POP1 ribonuclease P/MRP subunit) | 0 | inactive
BOLL (boule RNA binding protein) | 0 | inactive
CACNG7 (calcium voltage-gated channel auxiliary subunit gamma 7) | -1 | inactive
ARAP1 (ArfGAP with RhoGAP domain, ankyrin repeat and PH domain 1) | 0 | inactive
KBTBD2 (kelch repeat and BTB domain containing 2) | 0 | inactive
